Test results from patent US10174005B2, “Fused pyrimidines as inhibitors of p97 complex” (Cleave Biosciences, Inc., priority 2014, dated 2019).

Tested on: Caco-2 cells

CC(C)NCC(O)COc1ccc(CC(N)=O)cc1 (centres unmarked) [Atenolol]
Peff A B, Range (pH 7.4 Caco-2, A to B): 0.69-1.80 × E-6 cm/sec | Peff B A, Range (pH 7.4 Caco-2, B to A): 1.69-2.68 × E-6 cm/sec
